Consider one sequence from article PMC10315272.

This data set deals with MhDREB2A-His (UniProt A0A4D6NVN0). The data set can be described thus: EMSA. The settings on record: excess unlabeled probe used as competitor; LightShift Chemiluminescent EMSA Kit (Thermo) per manufacturer; pH and temperature not stated; recombinant protein; protein details: His (pEASY-Blunt E2); label: 5'-biotin.

The exact form of at least one protein or probe is not confirmed.

Regarding “AAAGGAGGATATTTAATTTTAAAACCGACACTTGTCCAGACACCACTACT (double strand) [ProMhZAT10 DRE probe]”, the binding result is on record as “binds”.
